# Results taken from the supplement of paper PMC6411743.
# ± gives the standard deviation of the averaged measurements. This is one part of the list.
# Target: T1, GBP1 (UniProt P32455)
# T1 sequence (whole entry): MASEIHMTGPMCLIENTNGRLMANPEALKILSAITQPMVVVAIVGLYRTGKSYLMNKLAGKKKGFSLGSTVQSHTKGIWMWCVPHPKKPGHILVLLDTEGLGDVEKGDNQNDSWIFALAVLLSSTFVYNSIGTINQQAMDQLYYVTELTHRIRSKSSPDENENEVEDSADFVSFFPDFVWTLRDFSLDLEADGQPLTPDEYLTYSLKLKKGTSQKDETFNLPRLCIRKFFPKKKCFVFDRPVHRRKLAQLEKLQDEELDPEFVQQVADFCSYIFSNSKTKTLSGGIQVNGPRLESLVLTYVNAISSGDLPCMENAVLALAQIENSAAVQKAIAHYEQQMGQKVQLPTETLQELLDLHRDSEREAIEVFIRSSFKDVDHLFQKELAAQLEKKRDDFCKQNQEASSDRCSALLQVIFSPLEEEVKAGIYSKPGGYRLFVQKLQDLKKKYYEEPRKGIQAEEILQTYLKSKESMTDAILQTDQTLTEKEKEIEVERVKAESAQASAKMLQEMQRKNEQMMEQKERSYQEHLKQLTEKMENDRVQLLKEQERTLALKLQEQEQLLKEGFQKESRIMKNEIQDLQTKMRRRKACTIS
# Test: NP40-soluble protein abundance relative to vehicle (solubility fold change) (ratio); higher = more soluble protein in presence of GTP
# Procedure: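 Solubility proteome profiling in Jurkat crude lysate. Lysate was treated with Mg-GTP (0.1-10 mM) for 10 min at room temperature and 3 min at 37 °C, then solubilised with 0.8% NP40 and benzonase, followed by ultracentrifugation. Proteins were quantified by TMT10 LC-MS/MS; the value is the NP40-soluble abundance relative to the NP40-processed vehicle, from 3 independent experiments.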
smiles,measurement,setting,value
Nc1nc2c(ncn2[C@@H]2O[C@H](COP(=O)(O)OP(=O)(O)OP(=O)(O)O)[C@@H](O)[C@H]2O)c(=O)[nH]1 [guanosine triphosphate],NP40-soluble protein abundance,concentration: 0.1mM,0.953 ± 0.071
same,NP40-soluble protein abundance,concentration: 0.5mM,0.946 ± 0.069
same,NP40-soluble protein abundance,concentration: 1mM,0.927 ± 0.065
same,NP40-soluble protein abundance,concentration: 2mM,0.89 ± 0.079
same,NP40-soluble protein abundance,concentration: 4mM,0.873 ± 0.077
same,NP40-soluble protein abundance,concentration: 6mM,0.877 ± 0.091
same,NP40-soluble protein abundance,concentration: 8mM,0.91 ± 0.067
same,NP40-soluble protein abundance,concentration: 10mM,0.883 ± 0.085
